Data from US20140079722A1, “EXTRACELLULAR TARGETED DRUG CONJUGATES” (CENTROSE, LLC, priority 2011, published 2014).
These are yes or no findings as the source states them, for the method shown. Some entries that bind do so weakly or less than the wild type.

Key:
[1] = biological target: T1, SEQ ID NO 4 (human); assay: ELISA, BSA-peptide conjugate coated, M53 at 1 ug/mL
T1 sequence (peptide, C-terminal cysteine conjugated to maleimide activated BSA): MDIQVPTRAPDAVYC

[2] = biological target: T2, SEQ ID NO 5 (human); assay: as above
T2 sequence (peptide, C-terminal cysteine conjugated to maleimide activated BSA): APDAVYTELQPTSPC

binding [1]: binds
binding [2]: binds
B1: M53 antibody (antibody, V domains shown)
VH: EVQLVESGGGLVQPKGTLKLSCAASGFSFNTHAMNWVRQAPGKSLEWVARTMSKSNNYATYYADSVKDRFIIRADDSQSMLYLQMNNLKTEDTAMYYCVRDDPKRGMDYWGQGTSVTVSS
VL: GIVMSQSPSSLAVSVGEKVTMSCKPSQSLLYSRNQKIYLAWYQQKPGQSPKLLIYWASTRESGVPDRFTGSGSGTDFTLIISSVRAEDLAVYYCQQYYNYPLTFGAGTKLELKR
